We go through three molecules from patent US20040009502A1 (published 2004).

Sequences of proteins named here, by UniProt entry; tags and fusion partners are left off. A change or cut given only in a name is not applied to a line headed by its entry.
UniProt P04386: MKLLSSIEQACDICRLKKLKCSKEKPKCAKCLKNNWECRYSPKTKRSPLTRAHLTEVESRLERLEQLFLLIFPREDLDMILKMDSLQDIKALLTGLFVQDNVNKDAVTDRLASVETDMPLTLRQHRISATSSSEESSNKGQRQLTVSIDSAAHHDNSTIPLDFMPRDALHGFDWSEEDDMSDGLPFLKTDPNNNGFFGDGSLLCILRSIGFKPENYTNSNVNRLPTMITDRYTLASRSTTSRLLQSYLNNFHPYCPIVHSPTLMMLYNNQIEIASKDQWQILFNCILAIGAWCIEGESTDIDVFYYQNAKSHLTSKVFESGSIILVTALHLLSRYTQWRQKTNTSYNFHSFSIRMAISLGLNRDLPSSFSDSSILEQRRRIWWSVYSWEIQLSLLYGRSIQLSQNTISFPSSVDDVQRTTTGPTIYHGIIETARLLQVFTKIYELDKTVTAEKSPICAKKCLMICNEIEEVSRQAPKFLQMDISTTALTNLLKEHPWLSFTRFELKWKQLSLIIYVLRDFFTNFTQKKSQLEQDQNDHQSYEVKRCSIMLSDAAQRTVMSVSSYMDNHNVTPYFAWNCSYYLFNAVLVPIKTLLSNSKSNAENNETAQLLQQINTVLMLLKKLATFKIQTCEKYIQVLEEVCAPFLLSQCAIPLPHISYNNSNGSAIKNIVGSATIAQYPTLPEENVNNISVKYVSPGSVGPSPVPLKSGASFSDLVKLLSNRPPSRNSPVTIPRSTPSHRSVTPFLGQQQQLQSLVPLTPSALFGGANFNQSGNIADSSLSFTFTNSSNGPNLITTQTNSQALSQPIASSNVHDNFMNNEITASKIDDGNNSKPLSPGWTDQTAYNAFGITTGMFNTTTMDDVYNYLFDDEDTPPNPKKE
UniProt Q7TSJ6: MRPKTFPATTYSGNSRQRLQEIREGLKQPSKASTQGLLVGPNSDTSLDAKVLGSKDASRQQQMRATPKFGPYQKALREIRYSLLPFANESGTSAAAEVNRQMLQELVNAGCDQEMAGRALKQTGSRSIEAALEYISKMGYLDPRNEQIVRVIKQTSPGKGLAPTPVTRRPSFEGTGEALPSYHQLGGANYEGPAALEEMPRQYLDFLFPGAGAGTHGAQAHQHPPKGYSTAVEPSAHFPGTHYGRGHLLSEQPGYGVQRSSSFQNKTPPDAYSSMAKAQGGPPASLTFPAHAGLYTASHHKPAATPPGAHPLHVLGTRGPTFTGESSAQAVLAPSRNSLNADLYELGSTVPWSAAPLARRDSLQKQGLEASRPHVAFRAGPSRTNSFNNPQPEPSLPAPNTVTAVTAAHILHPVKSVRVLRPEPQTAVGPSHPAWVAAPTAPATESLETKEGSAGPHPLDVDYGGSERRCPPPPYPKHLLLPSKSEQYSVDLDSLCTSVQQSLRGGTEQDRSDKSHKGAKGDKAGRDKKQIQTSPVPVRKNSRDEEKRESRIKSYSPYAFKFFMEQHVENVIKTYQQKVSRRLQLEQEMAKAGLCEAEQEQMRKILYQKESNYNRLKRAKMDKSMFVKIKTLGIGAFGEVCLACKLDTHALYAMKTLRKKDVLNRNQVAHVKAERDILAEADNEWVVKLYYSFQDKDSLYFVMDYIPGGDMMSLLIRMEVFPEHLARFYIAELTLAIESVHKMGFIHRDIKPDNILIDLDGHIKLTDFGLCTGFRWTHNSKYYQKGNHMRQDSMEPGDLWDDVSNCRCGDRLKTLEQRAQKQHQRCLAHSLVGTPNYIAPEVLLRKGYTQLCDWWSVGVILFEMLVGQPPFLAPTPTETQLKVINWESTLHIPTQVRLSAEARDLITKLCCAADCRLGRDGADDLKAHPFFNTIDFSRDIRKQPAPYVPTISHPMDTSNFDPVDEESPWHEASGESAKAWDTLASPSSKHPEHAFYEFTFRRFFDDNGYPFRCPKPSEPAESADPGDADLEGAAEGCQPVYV

Results are given in words; binding and its absence hold for the method and conditions named. Some binding calls cover weakened binding; strength is not graded here. Tags and fused reporters may be left off the sequences shown.

Test [1] addresses T1, mouse Replication Protein Binding Trans-Activator (mRBT1) fused to the GAL4 activation domain (pGADT7-mRBT1) (mouse) (UniProt Q9ERC3).
T1 sequence (looked up): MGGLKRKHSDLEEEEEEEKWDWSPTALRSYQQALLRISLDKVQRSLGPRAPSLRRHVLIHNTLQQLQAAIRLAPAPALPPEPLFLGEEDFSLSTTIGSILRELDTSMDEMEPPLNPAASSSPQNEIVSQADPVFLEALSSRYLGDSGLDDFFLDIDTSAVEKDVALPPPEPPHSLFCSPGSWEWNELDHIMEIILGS
Put plainly: yeast two-hybrid (growth on quadruple dropout plates).

Test [2] addresses T2, mLATS2 fused to the GAL4 DNA binding domain (pGBKT7-mLATS2) (mouse) (UniProt P04386+Q7TSJ6). The test is described as above.
Test [3] addresses T2, mLATS2 fused to the GAL4 DNA binding domain (pGBKT7-mLATS2) (mouse). Put plainly: yeast two-hybrid.

As to “mLATS2 fused to the GAL4 DNA binding domain (pGBKT7-mLATS2) (from UniProt P04386 1-147; Q7TSJ6 1-1042) (enzyme)”, the binding entry in test [1] is on record as “binds”.

B1: mRBT1N121 fused to the GAL4 activation domain (pGADT7-mRBT1N121) (other, mouse, UniProt Q9ERC3 1-121, looked up, not shown: large carriers)
chain: MGGLKRKHSDLEEEEEEEKWDWSPTALRSYQQALLRISLDKVQRSLGPRAPSLRRHVLIHNTLQQLQAAIRLAPAPALPPEPLFLGEEDFSLSTTIGSILRELDTSMDEMEPPLNPAASSS
notes: Made by removing the Xho I fragment from pGADT7-mRBT1
With B1, the binding entry in test [2] was “binds”.

B2: mouse Replication Protein Binding Trans-Activator (mRBT1) fused to the GAL4 activation domain (pGADT7-mRBT1) (other, UniProt Q9ERC3 1-197, looked up, not shown: large carriers)
chain: T1 sequence (looked up)
Regarding B2, the binding entry in test [3] was “binds”.
